Measured values reported in US20220347139A1, “METHOD OF TREATMENT VIA INTRA-ARTICULAR APPLICATION OF POTASSIUM” (Rensselaer Polytechnic Institute, priority 2018, published 2022).
At least one structure is not confirmed: it was looked up by name or label, or the drawing left a doubt.

System: Raw 264.7 murine macrophages
Experiment: IFN-stimulated macrophages in PEGDA hydrogels, in vitro mimic of intra-articular injection
Type: cell-based
Details: 80 mM K+ applied during the first day only; 5 days in culture in continued presence of IFN; relative to IFN controls
Procedure: Referring now to FIG. 5A, an in vitro experiment was designed to mimic an intra-articular injection of potassium osmolytes consistent with the embodiments described above. Poly(ethylene glycol) diacrylate hydrogels encapsulated with proinflammatory interferon-gamma (IFN)-stimulated macrophages (M(IFN)s) were prepared. M(IFN)s were cultured for 5 days in the continued presence of IFN, with 80 mM K+ applied only during the first day and then removed. Other IA injection formulations—human mesenchymal stem cells (MSCs) and methylprednisolone acetate (MPA)—were also included to gain a sense of efficacy and benchmark against current OA treatments.
The PEGDA hydrogel (˜50 kPa stiffness) was provided at the bottom of the culture well to create a surface that more closely matches the stiffness of articular cartilage (aggregate modulus ˜500 kPa) than traditional plastic 2D surfaces (˜1×10^6 kPa). MSC behavior is known to respond to substrate stiffness. Assessments for treatment efficacy included cell lysate levels of several proinflammatory markers, anti-inflammatory markers, and the ratio between anti/proinflammatory profiles. […]
Referring now to FIGS. 5B and 5C, relative protein production of proinflammatory and anti-inflammatory molecules and the ratio between anti/proinflammatory profiles in Raw 264.7 macrophages were determined after 5 days in culture. […]

CC(=O)OCC(=O)[C@@]1(O)CC[C@H]2[C@@H]3C[C@H](C)C4=CC(=O)C=C[C@]4(C)[C@H]3[C@@H](O)C[C@@]21C [MPA, methylprednisolone acetate, reference compound]
anti/proinflammatory cytokine ratio (relative protein production): In contrast to
